The test concerns the target T1, ATGL-CFP (adipose triglyceride lipase fused to CFP) (UniProt Q96AD5).
T1 sequence: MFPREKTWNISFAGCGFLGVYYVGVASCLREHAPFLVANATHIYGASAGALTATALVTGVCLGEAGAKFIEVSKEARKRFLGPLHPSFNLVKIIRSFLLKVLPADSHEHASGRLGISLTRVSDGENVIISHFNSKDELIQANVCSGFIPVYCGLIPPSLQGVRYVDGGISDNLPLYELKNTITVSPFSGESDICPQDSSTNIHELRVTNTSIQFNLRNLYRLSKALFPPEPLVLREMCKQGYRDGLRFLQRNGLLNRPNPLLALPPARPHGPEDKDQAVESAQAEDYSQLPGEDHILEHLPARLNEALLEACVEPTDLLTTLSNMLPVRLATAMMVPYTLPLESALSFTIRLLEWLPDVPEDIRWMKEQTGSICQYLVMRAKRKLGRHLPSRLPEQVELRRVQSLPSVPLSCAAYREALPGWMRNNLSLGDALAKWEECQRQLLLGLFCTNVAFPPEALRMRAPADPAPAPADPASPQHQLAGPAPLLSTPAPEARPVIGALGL
Briefly: FRET or BRET; FLIM-FRET with phasor analysis in live transfected cells, CFP donor and YFP acceptor, 37°C, 5% CO2; basal and forskolin (PKA) stimulated; ATGL-CFP with PLIN5-YFP in WT and HSD^KO cells; read-out FRET ratio (pixels with FRET / pixels without). On the technique in general: In BRET a luciferase serves as donor, and the signal depends on an acceptor being close.

Results are given in words; binding and its absence hold for the method and conditions named. Binding seen in cells or lysates may run through a third protein. Some binding calls cover weakened binding; strength is not graded here. Sequences can lack the tags named with a protein.

B1: PLIN5-YFP (perilipin 5 fused to YFP) (protein, UniProt Q00G26 1-463)
chain: MSEEEAAQIPRSSVWEQDQQNVVQRVVALPLVRATCTAVCDVYSAAKDRHPLLGSACRLAENCVCGLTTRALDHAQPLLEHLQPQLATMNSLACRGLDKLEEKLPFLQQPSETVVTSAKDVVASSVTGVVDLARRGRRWSVELKRSVSHAVDVVLEKSEELVDHFLPMTEEELAALAAEAEGPEVGSVEDQRRQQGYFVRLGSLSARIRHLAYEHSVGKLRQSKHRAQDTLAQLQETLELIDHMQCGVTPTAPACPGKVHELWGEWGQRPPESRRRSQAELETLVLSRSLTQELQGTVEALESSVRGLPAGAQEKVAEVRRSVDALQTAFADARCFRDVPAAALAEGRGRVAHAHACVDELLELVVQAVPLPWLVGPFAPILVERPEPLPDLADLVDEVIGGPDPRWAHLDWPAQQRAWEAEHRDGSGNGDGDRMGVAGDICEQEPETPSCPVKHTLMPELDF
With B1, the binding entry is listed as “binds”.

Values taken from article PMC12743511, “HSD17β11 regulates PLIN5-ATGL mediated lipolysis, but not hepatic lipid metabolism in mice” (Journal of Lipid Research, 2025).
